From article PMC9302044
These are yes or no findings as the source states them, for the method shown. In cells and extracts the contact can be indirect. Some entries that bind do so weakly or less than the wild type.

Chains of the proteins cited; added tags and fusions are not shown.
UniProt Q01860: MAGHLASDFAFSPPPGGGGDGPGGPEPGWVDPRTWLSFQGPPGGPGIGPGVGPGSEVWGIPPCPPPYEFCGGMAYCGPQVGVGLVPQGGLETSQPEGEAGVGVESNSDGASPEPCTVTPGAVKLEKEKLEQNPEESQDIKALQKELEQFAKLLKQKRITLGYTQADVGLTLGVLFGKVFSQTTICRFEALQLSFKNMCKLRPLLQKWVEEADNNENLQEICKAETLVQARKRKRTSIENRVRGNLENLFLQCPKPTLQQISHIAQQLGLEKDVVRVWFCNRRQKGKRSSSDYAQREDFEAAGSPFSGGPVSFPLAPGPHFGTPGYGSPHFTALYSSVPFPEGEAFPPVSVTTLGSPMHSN
UniProt O75376: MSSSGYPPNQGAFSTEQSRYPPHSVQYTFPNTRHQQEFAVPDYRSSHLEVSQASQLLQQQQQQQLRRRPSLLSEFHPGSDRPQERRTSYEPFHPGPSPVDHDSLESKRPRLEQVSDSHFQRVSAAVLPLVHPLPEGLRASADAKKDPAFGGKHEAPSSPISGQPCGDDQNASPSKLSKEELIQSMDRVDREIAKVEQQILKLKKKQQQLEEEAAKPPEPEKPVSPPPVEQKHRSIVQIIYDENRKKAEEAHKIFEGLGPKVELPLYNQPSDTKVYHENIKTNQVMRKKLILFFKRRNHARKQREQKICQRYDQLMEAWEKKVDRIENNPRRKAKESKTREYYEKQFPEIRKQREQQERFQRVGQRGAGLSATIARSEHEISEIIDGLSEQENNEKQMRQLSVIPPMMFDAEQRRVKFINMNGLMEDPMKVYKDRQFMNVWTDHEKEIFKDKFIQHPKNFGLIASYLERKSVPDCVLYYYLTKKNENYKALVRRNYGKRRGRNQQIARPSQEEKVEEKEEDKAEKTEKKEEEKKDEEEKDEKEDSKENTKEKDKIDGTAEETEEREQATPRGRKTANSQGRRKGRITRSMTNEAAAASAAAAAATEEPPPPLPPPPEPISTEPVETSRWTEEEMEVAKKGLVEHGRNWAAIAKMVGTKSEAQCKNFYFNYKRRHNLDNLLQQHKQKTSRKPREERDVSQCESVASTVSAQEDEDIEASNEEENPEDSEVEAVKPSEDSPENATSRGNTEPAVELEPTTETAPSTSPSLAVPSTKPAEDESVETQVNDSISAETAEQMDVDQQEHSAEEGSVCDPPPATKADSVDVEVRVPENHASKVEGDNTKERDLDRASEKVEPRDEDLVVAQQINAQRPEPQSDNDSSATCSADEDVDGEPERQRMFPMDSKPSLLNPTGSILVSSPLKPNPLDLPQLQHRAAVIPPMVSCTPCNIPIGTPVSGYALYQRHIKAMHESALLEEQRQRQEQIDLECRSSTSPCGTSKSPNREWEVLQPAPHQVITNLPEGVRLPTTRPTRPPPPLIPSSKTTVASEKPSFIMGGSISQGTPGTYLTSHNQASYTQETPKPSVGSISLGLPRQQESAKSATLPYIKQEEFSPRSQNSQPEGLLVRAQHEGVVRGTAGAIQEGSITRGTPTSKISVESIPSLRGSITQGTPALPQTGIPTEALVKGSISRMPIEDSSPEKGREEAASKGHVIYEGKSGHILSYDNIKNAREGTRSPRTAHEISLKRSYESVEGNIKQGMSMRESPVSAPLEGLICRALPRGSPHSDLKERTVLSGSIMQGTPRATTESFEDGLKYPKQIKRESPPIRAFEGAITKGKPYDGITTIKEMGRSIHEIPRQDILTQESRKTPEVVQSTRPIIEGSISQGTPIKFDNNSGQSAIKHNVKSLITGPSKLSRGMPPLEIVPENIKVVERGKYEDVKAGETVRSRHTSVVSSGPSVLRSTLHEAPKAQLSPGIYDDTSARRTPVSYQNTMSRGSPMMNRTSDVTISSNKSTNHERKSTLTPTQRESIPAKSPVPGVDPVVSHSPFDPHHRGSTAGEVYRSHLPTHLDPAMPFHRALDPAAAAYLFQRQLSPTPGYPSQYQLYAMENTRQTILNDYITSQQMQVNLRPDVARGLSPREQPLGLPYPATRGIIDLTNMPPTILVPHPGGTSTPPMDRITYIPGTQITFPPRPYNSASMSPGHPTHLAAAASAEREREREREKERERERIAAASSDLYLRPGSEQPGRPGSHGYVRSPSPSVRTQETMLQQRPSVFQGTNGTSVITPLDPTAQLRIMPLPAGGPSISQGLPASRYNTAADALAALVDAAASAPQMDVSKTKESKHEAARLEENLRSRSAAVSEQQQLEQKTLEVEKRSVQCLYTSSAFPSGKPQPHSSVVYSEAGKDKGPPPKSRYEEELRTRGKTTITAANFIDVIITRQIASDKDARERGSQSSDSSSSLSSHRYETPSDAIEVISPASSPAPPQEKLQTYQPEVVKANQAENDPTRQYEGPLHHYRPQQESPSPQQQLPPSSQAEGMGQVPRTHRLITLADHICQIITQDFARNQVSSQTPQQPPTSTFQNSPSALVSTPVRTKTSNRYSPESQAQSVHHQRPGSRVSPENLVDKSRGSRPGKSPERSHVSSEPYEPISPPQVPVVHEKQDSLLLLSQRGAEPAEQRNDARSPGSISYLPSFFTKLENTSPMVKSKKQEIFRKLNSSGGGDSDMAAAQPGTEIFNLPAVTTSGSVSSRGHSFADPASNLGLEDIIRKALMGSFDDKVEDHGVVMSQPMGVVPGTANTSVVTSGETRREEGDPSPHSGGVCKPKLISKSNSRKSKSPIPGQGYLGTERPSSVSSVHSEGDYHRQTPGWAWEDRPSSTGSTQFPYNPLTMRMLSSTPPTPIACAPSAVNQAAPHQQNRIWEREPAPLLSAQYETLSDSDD

Target: Octamer-binding transcription factor 4 (OCT4) (UniProt Q01860)
Assay: co-IP; SiHa lysate (50 mM Tris-HCl, 150 mM NaCl, 1% NP-40, 2 mM EDTA, protease inhibitors), 800 ug protein incubated with Flag magnetic beads overnight at 4°C, rinsed with PBS; Western blot with anti-Flag, OCT4 or NCOR1 antibodies

## NCOR1 (from UniProt O75376 1-2440)
  binding: binds
